Laboratory results as given in patent publication US11344549B2 (priority 2017, dated 2022).

Protein sequences, listed by entry. Tags and fused reporters are not part of them. Residues count along the entry.
UniProt O60674, 826-1132: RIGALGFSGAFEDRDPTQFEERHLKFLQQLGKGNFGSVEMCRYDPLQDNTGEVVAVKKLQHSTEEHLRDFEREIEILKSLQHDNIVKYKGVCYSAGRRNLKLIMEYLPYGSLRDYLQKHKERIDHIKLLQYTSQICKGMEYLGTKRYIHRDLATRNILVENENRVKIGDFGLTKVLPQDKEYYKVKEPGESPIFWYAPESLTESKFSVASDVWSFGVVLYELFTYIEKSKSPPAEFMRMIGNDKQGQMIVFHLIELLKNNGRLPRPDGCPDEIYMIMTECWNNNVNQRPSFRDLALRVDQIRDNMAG
UniProt P23458, 850-1154: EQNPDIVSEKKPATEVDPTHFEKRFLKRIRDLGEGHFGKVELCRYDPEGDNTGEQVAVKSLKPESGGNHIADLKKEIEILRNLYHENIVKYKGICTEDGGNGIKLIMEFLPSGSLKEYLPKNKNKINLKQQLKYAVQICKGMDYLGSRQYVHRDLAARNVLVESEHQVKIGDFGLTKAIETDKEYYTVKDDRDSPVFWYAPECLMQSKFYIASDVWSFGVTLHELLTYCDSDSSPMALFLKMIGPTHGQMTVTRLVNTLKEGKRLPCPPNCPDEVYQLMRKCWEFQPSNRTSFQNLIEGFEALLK

Tests used:
[1] = target: JAK2 kinase (Homo sapiens (Human), UniProt O60674); details: read-out: JAK2 IC50
[2] = target: JAK1 kinase (Homo sapiens (Human), UniProt P23458); details: read-out: JAK1 IC50

SMILES: Cc1cccc(C)c1CNc1nc(Nc2cnn(C)c2)ncc1C(N)=O [Example 4, 4-((2,6-dimethylbenzyl)amino)-2-((1-methyl-1H-pyrazol-4-yl)amino)pyrimidin-5-carboxamide]
- IC50 [1]: 4.49 nM
- IC50 [2]: 22.2 nM
